# The list shows a part of the results.
# B1: Layilin (Mus musculus), Q8C351 (protein)
# chain: MQPGAALQAMLLAVLLAKPRDSKGRLLSASDLDPRGGQLVCRGGTRRPCYKVIYFHDAFQRLNFEEAKETCMEDGGQLVSIETEDEQRLIEKFIENLLASDGDFWIGLKRLEEKQSNNTACQDLYAWTDGSTSQFRNWYVDEPSCGSEVCVVMYHQPSAPPGIGGSYMFQWNDDRCNMKNNFICKYHDDKPSTTPSIWPGGEATEPATPLLPEETQKEDTKETFKERREAALNLAYILIPSIPLFLLLVVTSAVCWVWICRRKREQTDPSTKEQHTIWPTPRQENSPNLDVYNVIRKQSEADLAEPRPDLKNISFRVCSGEAMPDDMSCDYENIAVNPSESGFVTLASMESGFVTNDIYEFSPDRMGRSKESGWVENEIYY
# Key:
# Assay in all cases: glycan array binding signal (z-score within array); higher = stronger binding
# Conditions in all cases: glycan notation: IUPAC condensed, linker removed
# Fuc(a1-2)Gal = molecular target: Fuc(a1-2)Gal
# Method in brief: (§1)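 Arrays were curated from the Consortium for Functional Glycomics database, 3228 in total, and kept only where the protein sequence was available. Binding is expressed as a within-array Z-score. This score was averaged across arrays of the same protein sequence at different concentrations or buffers and across linkers, and negative values can be read as non-binding.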
# Fuc(a1-2)Gal(b1-3)GalNAc = molecular target: Fuc(a1-2)Gal(b1-3)GalNAc
# Method in brief: as §1
# [1] = molecular target: Fuc(a1-2)Gal(b1-3)GalNAc(a1-3)[Fuc(a1-2)]Gal(b1-4)Glc
# Method in brief: as §1
# [2] = molecular target: Fuc(a1-2)Gal(b1-3)GalNAc(a1-3)[Fuc(a1-2)]Gal(b1-4)GlcNAc
# Method in brief: as §1
# [3] = molecular target: Fuc(a1-2)Gal(b1-3)GalNAc(b1-3)Gal
# Method in brief: as §1
# [4] = molecular target: Fuc(a1-2)Gal(b1-3)GalNAc(b1-3)Gal(a1-4)Gal(b1-4)Glc
# Method in brief: as §1
# [5] = molecular target: Fuc(a1-2)Gal(b1-3)GalNAc(b1-4)[Neu5Ac(a2-3)]Gal(b1-4)Glc
# Method in brief: as §1
# Fuc(a1-2)Gal(b1-3)GlcNAc = molecular target: Fuc(a1-2)Gal(b1-3)GlcNAc
# Method in brief: as §1
# [6] = molecular target: Fuc(a1-2)Gal(b1-3)GlcNAc(b1-2)Man(a1-3)[Fuc(a1-2)Gal(b1-3)GlcNAc(b1-2)Man(a1-6)]Man(b1-4)GlcNAc(b1-4)GlcNAc
# Method in brief: as §1
# [7] = molecular target: Fuc(a1-2)Gal(b1-3)GlcNAc(b1-2)Man(a1-3)[Fuc(a1-2)Gal(b1-3)GlcNAc(b1-2)Man(a1-6)]Man(b1-4)GlcNAc(b1-4)[Fuc(a1-6)]GlcNAc
# Method in brief: as §1
# [8] = molecular target: Fuc(a1-2)Gal(b1-3)GlcNAc(b1-3)Gal(b1-4)Glc
# Method in brief: as §1
# [9] = molecular target: Fuc(a1-2)Gal(b1-3)GlcNAc(b1-3)GalNAc
# Method in brief: as §1
# [10] = molecular target: Fuc(a1-2)Gal(b1-3)GlcNAc(b1-3)[Fuc(a1-3)[Gal(b1-4)]GlcNAc(b1-6)]Gal(b1-4)Glc
# Method in brief: as §1
# [11] = molecular target: Fuc(a1-2)Gal(b1-3)GlcNAc(b1-3)[Gal(b1-4)GlcNAc(b1-6)]Gal(b1-4)Glc
# Method in brief: as §1
# [12] = molecular target: Fuc(a1-2)Gal(b1-3)GlcNAc(b1-3)[Neu5Ac(a2-6)Gal(b1-4)GlcNAc(b1-6)]Gal(b1-4)Glc
# Method in brief: as §1
# [13] = molecular target: Fuc(a1-2)Gal(b1-3)[Fuc(a1-4)]GlcNAc
# Method in brief: as §1
# [14] = molecular target: Fuc(a1-2)Gal(b1-3)[Fuc(a1-4)]GlcNAc(b1-2)Man(a1-3)[Fuc(a1-2)Gal(b1-3)[Fuc(a1-4)]GlcNAc(b1-2)Man(a1-6)]Man(b1-4)GlcNAc(b1-4)GlcNAc
# Method in brief: as §1
# [15] = molecular target: Fuc(a1-2)Gal(b1-3)[Fuc(a1-4)]GlcNAc(b1-3)[Fuc(a1-3)[Gal(b1-4)]GlcNAc(b1-6)]Gal(b1-4)Glc
# Method in brief: as §1
# [16] = molecular target: Fuc(a1-2)Gal(b1-3)[Fuc(a1-4)]GlcNAc(b1-3)[Gal(b1-4)GlcNAc(b1-6)]Gal(b1-4)Glc
# Method in brief: as §1
# Fuc(a1-2)Gal(b1-4)Glc = molecular target: Fuc(a1-2)Gal(b1-4)Glc
# Method in brief: as §1
# Fuc(a1-2)Gal(b1-4)Glc6S = molecular target: Fuc(a1-2)Gal(b1-4)Glc6S
# Method in brief: as §1
# Fuc(a1-2)Gal(b1-4)GlcNAc = molecular target: Fuc(a1-2)Gal(b1-4)GlcNAc
# Method in brief: as §1
# [17] = molecular target: Fuc(a1-2)Gal(b1-4)GlcNAc(b1-2)Man(a1-3)[Fuc(a1-2)Gal(b1-4)GlcNAc(b1-2)Man(a1-6)]Man(b1-4)GlcNAc(b1-4)GlcNAc
# Method in brief: as §1
# [18] = molecular target: Fuc(a1-2)Gal(b1-4)GlcNAc(b1-2)Man(a1-3)[Fuc(a1-2)Gal(b1-4)GlcNAc(b1-2)Man(a1-6)]Man(b1-4)GlcNAc(b1-4)[Fuc(a1-6)]GlcNAc
# Method in brief: as §1
# [19] = molecular target: Fuc(a1-2)Gal(b1-4)GlcNAc(b1-2)[Fuc(a1-2)Gal(b1-4)GlcNAc(b1-4)]Man(a1-3)[Fuc(a1-2)Gal(b1-4)GlcNAc(b1-2)Man(a1-6)]Man(b1-4)GlcNAc(b1-4)GlcNAc
# Method in brief: as §1
# [20] = molecular target: Fuc(a1-2)Gal(b1-4)GlcNAc(b1-3)Gal(b1-4)GlcNAc
# Method in brief: as §1
# [21] = molecular target: Fuc(a1-2)Gal(b1-4)GlcNAc(b1-3)Gal(b1-4)GlcNAc(b1-3)Gal(b1-4)GlcNAc
# Method in brief: as §1
# [22] = molecular target: Fuc(a1-2)Gal(b1-4)GlcNAc(b1-3)GalNAc
# Method in brief: as §1
# [23] = molecular target: Fuc(a1-2)Gal(b1-4)GlcNAc(b1-3)[Fuc(a1-2)Gal(b1-4)GlcNAc(b1-6)]GalNAc
# Method in brief: as §1
# [24] = molecular target: Fuc(a1-2)Gal(b1-4)GlcNAc6S
# Method in brief: as §1
binder,measurement,setting,value
B1,glycan array binding signal (z-score),Fuc(a1-2)Gal,-0.301
same,glycan array binding signal (z-score),Fuc(a1-2)Gal(b1-3)GalNAc,0.577
same,glycan array binding signal (z-score),[1],-0.074
same,glycan array binding signal (z-score),[2],0.776
same,glycan array binding signal (z-score),[3],0.197
same,glycan array binding signal (z-score),[4],0.113
same,glycan array binding signal (z-score),[5],-0.101
same,glycan array binding signal (z-score),Fuc(a1-2)Gal(b1-3)GlcNAc,0.69
same,glycan array binding signal (z-score),[6],0.094
same,glycan array binding signal (z-score),[7],0.439
same,glycan array binding signal (z-score),[8],-0.956
same,glycan array binding signal (z-score),[9],-0.519
same,glycan array binding signal (z-score),[10],-0.407
same,glycan array binding signal (z-score),[11],0.69
same,glycan array binding signal (z-score),[12],-0.723
same,glycan array binding signal (z-score),[13],-0.947
same,glycan array binding signal (z-score),[14],0.431
same,glycan array binding signal (z-score),[15],-0.783
same,glycan array binding signal (z-score),[16],0.053
same,glycan array binding signal (z-score),Fuc(a1-2)Gal(b1-4)Glc,0.001
same,glycan array binding signal (z-score),Fuc(a1-2)Gal(b1-4)Glc6S,-0.382
same,glycan array binding signal (z-score),Fuc(a1-2)Gal(b1-4)GlcNAc,-0.44
same,glycan array binding signal (z-score),[17],-0.025
same,glycan array binding signal (z-score),[18],0.674
same,glycan array binding signal (z-score),[19],0.284
same,glycan array binding signal (z-score),[20],-0.443
same,glycan array binding signal (z-score),[21],-0.05
same,glycan array binding signal (z-score),[22],0.468
same,glycan array binding signal (z-score),[23],-0.862
same,glycan array binding signal (z-score),[24],-0.891

# 2 entries from above in another layout.
binder	measurement	setting	value
B1	glycan array binding signal (z-score)	[1]	-0.074
same	glycan array binding signal (z-score)	[2]	0.776

# From the supplement of paper PMC8728848
